The target in assay [1] is T1, Plasmodium vivax cytosolic phenylalanine tRNA-synthetase alpha subunit, full length (Plasmodium vivax) (UniProt A5K9S0).
T1 sequence: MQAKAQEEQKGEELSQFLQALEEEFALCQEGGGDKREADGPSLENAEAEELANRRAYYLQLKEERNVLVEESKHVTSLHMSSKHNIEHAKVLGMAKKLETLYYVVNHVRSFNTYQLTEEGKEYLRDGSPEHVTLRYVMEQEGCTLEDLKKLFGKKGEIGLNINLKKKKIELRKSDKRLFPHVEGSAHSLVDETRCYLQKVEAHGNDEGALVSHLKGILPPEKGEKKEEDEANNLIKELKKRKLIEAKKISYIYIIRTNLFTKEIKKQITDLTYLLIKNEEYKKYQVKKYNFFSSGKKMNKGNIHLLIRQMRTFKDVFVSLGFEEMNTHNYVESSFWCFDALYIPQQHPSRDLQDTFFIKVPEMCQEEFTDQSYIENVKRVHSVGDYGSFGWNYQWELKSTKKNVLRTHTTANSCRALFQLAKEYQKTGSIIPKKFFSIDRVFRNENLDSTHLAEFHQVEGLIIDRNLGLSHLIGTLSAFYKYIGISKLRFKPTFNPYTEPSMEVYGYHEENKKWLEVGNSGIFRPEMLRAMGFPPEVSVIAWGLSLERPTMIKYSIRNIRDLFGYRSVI
In words: SEC; purified PvcFRS on a Superdex 200 analytical gel filtration column; both purified.

Assay [2] addresses T2, PvcFRS alpha subunit as in the crystal (N-terminal domain, residues 1-270, absent) (Plasmodium vivax) (UniProt A5K9S0).
T2 sequence: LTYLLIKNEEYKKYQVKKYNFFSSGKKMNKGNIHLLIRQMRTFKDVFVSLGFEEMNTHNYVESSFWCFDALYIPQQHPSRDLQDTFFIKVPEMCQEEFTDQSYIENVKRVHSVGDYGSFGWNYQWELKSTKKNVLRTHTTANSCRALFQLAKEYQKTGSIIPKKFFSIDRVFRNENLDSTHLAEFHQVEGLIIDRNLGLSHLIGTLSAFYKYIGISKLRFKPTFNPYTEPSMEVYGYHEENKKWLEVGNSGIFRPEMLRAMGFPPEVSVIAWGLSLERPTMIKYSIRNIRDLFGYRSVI
In words: crystal structure; PvcFRS with BRD1389 and Mg2+, space group P2(1)2(1)2, one αβ heterodimer per asymmetric unit, 3.0 Å; both purified.

No constants are given. Whether binding was seen depends on the method and setting. Some entries that bind do so weakly or less than the wild type.

B1: Plasmodium vivax cytosolic phenylalanine tRNA-synthetase beta subunit, full length (enzyme, UniProt A5K464 1-617)
chain: MPTISVHEEDLIEKLGEKIEEEKLNDICFEFGIEIDDVEYKGEKKIYKIEVPANRYDLVCVEGLCRALKSFIGKYENVSYALLTNSEEACVKEKHFMRVDESVDERRSYVVSAVLKNVKMNENVYNNIIELQEKLHHNLGKKRILLAIGIHDYDKINFPVAYKFEEKEKINFIPLNETQNVNGNNFINFYQDNINLKSYLKIISDFEKFPVIVDAGGQILSLPPIINCDYTKITYDTRNLFIECTAIDRNKAEIAVNIICSMLSEYCTPKYSIHSFFVQYDKNHKAEKGNGYLYPVFKNKTLTCHMDYVRKLSGILNLSVKDVEPLLKKMMITSKVIDSSTFTVDVPFYRSDIMHFCDIVEDIAIAYGYGNIVSEKIEIAKKNSLSACTELFRNVLAECTYTEVMTNALLSKRENYDCMLRKHRSYDDRKINLDEYNPLAPPVQIMNSKTSEYEIVRTSLIVNMLKFVSANKHRELPLRFFEIGDVSYTTYDRTDTNAVNKRYLSVIFADKFTAGLEEAHGMLETVLKEFQLFSDYKIEEKSKENVAIRSDVFYKLVPKEDPSFLNERVVDIVLCPHNLKFGIMGIIHPKVLENFSIDIPVSVIEINIETIMDVLMM
Consider B1, for which the binding entry in assay [1] and in assay [2] was “binds” each time.

For the origin of these results see PMC7803973, “Structural basis of malaria parasite phenylalanine tRNA-synthetase inhibition by bicyclic azetidines” (Nature Communications, 2021).
